Experimental data reported in the supplement of paper PMC10338343.
± gives the standard deviation. Only a part is listed here, and it is no random draw. The uncertainty is large for many entries.

system: EfPiwi piRISC loaded with piRNA #1 (26 nt); assay: pre-steady-state target cleavage rate (min^-1); guide: piRNA #1 5'p-UGAGGUAGUAGGUUGUAUAGUAUCCA; MIWI and MILI are mouse PIWI proteins and EfPiwi is from a freshwater sponge; tags in brackets are library labels; higher = faster piRNA-guided slicing of the target; conditions: auxiliary factor: 500 nM Ephydatia muelleri Gtsf1
Method: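 Cleave-'n-Seq: a library of target RNAs (target site in constant flanks) at […] was incubated with 1 nM active freshwater sponge Ephydatia fluviatilis Piwi piRISC (synthetic 5'-monophosphorylated piRNA guide) with or without 500 nM EmGtsf1 at 33 °C for 1 min to 16 h. Uncleaved targets were sequenced and the pooled three trials fitted to a burst-and-steady-state model to give the pre-steady-state cleavage rate (min^-1). Sequence is the target site only. Fits with R² ≤ 0 are excluded.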

| Sequence | pre-steady-state target cleavage rate |
| --- | --- |
| GGAGACCUAUCUAUACAACGUACUACCUGA | 0.00325 ± 0.0035 |
| GGAGUGGAUACUAUUCAACCUACUACGUCA | 0.00281 ± 0.0015 |
| GGAGACCUAUCUAUACAACCUUCUAGCUCA | 0.000342 ± 0.0085 |
| GGAGACGAUACUAAUGAACCUACUACCUCA | 0.00034 ± 0.0067 |
| GGAGACCUAUGUAUACAACCUACUUGGUCA | 0.000291 ± 0.0069 |
| GGAGACCUAUGAUAUCAAGCUACUACCUCA | 0.000346 ± 0.0053 |
| GGAGACGAUACUAUACAACCUACUAGGUCA | 0.0052 ± 0.002 |
| GGAGAGGAUACUUUACAACCUACUACCACA | 0.0019 ± 0.0011 |
| GGAGACCUAUGAUAUCAACAUACUACCUCA | 0.00127 ± 0.005 |
| GGAGACCUAACUAUACAACCUAUCUACCUCA | 0.00181 ± 0.0046 |
| GGAGACGAUAGAAUACAACCUACUACCUCA | 0.00812 ± 0.0043 |
| GGAGACCUUACAAUACAACGUACUACCUCA | 0.00409 ± 0.004 |
| GGAGACCUUACUAUACAACCUACAACCUGA | 0.00119 ± 0.0036 |
| GGAGACCUUACUAUACAACCUACUAGCUCA | 0.00255 ± 0.0017 |
| GGAGACGAUACUAUACAACGAUCUACCUCA | 0.00224 ± 0.0026 |
| GGAGACCUAUGAUAACAACCUACUUCCUCA | 0.000378 ± 0.0077 |
| GGAGUGGAUACUAUACAACCUACUGCCUCA | 0.00835 ± 0.0028 |
| GGAGAGGAUUCUAUACAACCUACUUCCUCA | 0.00104 ± 0.0038 |
| GGAGACCAUACUAAUGAACCUACUACCUCA | 0.00242 ± 0.0043 |
| GGAGACCUAUGAUUACAACCUUCUACCUCA | 0.00125 ± 0.0046 |

At a glance, some entries already given.

| Sequence | pre-steady-state target cleavage rate |
| --- | --- |
| GGAGUGGAUACUAUUCAACCUACUACGUCA | 0.00281 ± 0.0015 |
| GGAGACCUAUCUAUACAACCUUCUAGCUCA | 0.000342 ± 0.0085 |
| GGAGACGAUACUAAUGAACCUACUACCUCA | 0.00034 ± 0.0067 |

Going on with the list.

| Sequence | pre-steady-state target cleavage rate |
| --- | --- |
| GGAGACCUUACUAUACAACCUACUACUCA | 0.0025 ± 0.003 |
| GGAGACCAUACUAUACAACCUACAUCCUCA | 0.00325 ± 0.0028 |
| GGAGACCUAUCUAUACAACCUACUAGGUCA | 0.00219 ± 0.0025 |
| GGAGACCUAUGAUAUCAACCUAGUACCUCA | 0.000368 ± 0.0087 |
| GGAGAGGAUACUUAUACAACCUACUACCUCA | 0.112 ± 0.045 |
| GGAGACCUAACUUUACAAGCUACUACCUCA | 0.0019 ± 0.004 |
| GGAGACCUAUGUAAACAACCUAGUACCUCA | 0.000981 ± 0.0083 |
| GGAGACCUAACUUUACAACCUUCUACCUCA | 0.000806 ± 0.0084 |
| GGAGACCUAACAAUAGAACCUACUACCUCA | 0.00104 ± 0.0056 |
| GGAGACCUAUCUAUACAACCUACUCACCUCA | 0.00113 ± 0.009 |
| GGAGACCUUAGUAAACAACCUACUACCUCA | 0.00381 ± 0.0043 |
| GGAGACCUUUCUAUACAACCUACUACCUGA | 0.0049 ± 0.0044 |
| GGAGACCUAUGAUAUGUUGGUACUACCUUCA | 0.000581 ± 0.007 |
| GGAGACCUAUGAUAACAACCUUGUACCUCA | 0.000127 ± 0.015 |
| GGAGACGAUACUAUACAACCUACAUGCUCA | 0.00271 ± 0.0034 |
| GGAGACCUUAGUAUACAACCUACUACCUCA | 0.0563 ± 0.02 |
| GGAGACCUAUCUAUACAAACUACUACCUCA | 0.00405 ± 0.005 |
| GGAGACCUUACUAUACAACCAACUUCCUCA | 0.00218 ± 0.0043 |
| GGAGACGAUACUAUACAACCAACUACCACA | 0.00406 ± 0.003 |
| GGAGACCAUACUAUACAACCUUCUAGCUCA | 0.00404 ± 0.0045 |
